{"sequences": {"note": "Sequences of proteins named here, by UniProt entry; tags and fusion partners are left off.", "UniProt O14744": "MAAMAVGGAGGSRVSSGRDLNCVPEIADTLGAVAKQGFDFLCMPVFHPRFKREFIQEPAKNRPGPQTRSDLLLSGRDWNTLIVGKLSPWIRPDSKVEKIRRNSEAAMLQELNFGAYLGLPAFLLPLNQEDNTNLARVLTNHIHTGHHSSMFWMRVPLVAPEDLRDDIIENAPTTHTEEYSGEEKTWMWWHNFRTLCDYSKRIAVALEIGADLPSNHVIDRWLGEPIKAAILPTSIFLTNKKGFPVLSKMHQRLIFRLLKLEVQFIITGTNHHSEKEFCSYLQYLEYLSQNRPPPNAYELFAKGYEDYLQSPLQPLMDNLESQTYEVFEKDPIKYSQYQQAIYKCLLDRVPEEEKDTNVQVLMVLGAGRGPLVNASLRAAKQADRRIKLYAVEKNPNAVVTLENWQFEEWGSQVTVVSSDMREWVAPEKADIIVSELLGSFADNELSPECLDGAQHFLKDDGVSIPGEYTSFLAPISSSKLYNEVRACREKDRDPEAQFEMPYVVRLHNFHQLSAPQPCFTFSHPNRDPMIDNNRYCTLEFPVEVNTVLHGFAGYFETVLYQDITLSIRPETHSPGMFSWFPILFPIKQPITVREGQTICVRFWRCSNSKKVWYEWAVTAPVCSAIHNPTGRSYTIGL"}, "source": "paper PMC8973551", "molecular_target": "T1, splicing factor 3a subunit 3 (SF3A3) (human (endogenous in A549 and H1650)) (UniProt Q12874)", "T1 sequence": "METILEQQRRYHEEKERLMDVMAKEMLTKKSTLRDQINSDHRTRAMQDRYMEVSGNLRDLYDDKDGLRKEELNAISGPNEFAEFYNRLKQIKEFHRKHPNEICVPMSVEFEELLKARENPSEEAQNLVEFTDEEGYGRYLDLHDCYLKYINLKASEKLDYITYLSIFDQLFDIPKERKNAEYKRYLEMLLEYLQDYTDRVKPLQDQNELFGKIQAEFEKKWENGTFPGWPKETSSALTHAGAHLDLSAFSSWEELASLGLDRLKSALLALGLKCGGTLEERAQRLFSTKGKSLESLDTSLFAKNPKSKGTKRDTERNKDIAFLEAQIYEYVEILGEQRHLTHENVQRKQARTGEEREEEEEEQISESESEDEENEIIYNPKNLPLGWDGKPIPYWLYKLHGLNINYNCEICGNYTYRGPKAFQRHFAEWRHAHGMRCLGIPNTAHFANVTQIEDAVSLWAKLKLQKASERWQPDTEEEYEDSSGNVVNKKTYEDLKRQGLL", "assay": "co-IP; lysates of NSCLC cells (A549, H1650) in Pierce IP Lysis Buffer, primary antibody with protein A/G magnetic beads at 4 °C overnight, 6 washes, immunoblot; also done on cells with circSCAP overexpression or SF3A3 siRNA (less complex, put down to the lower SF3A3 level)", "note": "These are yes or no findings as the source states them, for the method shown. Binding seen in cells or lysates may run through a third protein. Some entries that bind do so weakly or less than the wild type.", "data": [{"substance": "protein arginine methyltransferase 5 (PRMT5) (from UniProt O14744 1-637)", "values": [{"measurement": "binding", "result": "binds"}]}]}
